Some of the results follow.
Legend:
Assay in all cases: log2 fold change, soluble protein after heating vs DMSO (PISA); higher = thermal stabilisation; K562 cells, 10 uM, 30 min; active = over 0.2 and 3.5 SD of the protein, either way, in both replicates (recomputed)
[1] = compound: CC1=C(C=C(C=C1)NC(=O)C2=CC(=CC=C2)C(C)(C)C#N)NC3=CC4=C(C=C3)N=CN(C4=O)C
In short: (§1)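 K562 cells at 2×10^6 cells/mL were given 10 μM compound for 30 min. Aliquots then went through 3 min of heating across 48°C-58°C, were pooled, and were extracted in PBS with 0.5% NP-40 at 4°C, and the supernatant after 21,000xg for 90 min was quantified by TMTpro 16plex LC-MS/MS with channel sums equalised. Thermal stability relative to control samples, from duplicates, is given as log2 fold change.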

Sequences of proteins named here, by UniProt entry; tags and fusion partners are left off. A change or cut given only in a name is not applied to a line headed by its entry.
UniProt Q9P0K7: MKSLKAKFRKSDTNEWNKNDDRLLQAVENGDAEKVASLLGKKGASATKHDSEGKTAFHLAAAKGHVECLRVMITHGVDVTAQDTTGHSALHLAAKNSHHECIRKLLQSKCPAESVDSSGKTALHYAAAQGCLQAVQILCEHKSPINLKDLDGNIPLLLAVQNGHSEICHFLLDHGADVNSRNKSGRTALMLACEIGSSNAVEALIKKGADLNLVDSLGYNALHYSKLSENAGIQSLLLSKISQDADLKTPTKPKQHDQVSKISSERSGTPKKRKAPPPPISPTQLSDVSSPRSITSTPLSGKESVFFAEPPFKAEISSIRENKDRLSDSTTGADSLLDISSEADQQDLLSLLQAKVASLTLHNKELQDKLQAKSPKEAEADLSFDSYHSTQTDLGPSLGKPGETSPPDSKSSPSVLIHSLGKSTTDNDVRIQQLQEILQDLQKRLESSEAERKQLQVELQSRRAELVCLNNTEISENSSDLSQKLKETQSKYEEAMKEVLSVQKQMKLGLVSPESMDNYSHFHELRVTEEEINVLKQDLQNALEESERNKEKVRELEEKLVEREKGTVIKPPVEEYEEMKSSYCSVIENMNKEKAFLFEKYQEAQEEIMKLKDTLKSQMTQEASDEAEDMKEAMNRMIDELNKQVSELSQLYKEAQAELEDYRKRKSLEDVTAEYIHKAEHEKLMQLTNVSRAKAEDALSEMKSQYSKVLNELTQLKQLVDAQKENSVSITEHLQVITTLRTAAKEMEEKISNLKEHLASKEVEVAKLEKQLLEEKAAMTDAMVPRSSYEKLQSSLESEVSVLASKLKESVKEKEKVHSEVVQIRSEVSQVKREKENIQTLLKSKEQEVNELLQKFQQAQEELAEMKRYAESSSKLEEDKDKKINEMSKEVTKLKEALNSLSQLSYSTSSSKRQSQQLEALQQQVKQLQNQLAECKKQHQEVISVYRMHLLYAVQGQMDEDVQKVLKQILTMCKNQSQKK
UniProt P49756, whole entry, looked up: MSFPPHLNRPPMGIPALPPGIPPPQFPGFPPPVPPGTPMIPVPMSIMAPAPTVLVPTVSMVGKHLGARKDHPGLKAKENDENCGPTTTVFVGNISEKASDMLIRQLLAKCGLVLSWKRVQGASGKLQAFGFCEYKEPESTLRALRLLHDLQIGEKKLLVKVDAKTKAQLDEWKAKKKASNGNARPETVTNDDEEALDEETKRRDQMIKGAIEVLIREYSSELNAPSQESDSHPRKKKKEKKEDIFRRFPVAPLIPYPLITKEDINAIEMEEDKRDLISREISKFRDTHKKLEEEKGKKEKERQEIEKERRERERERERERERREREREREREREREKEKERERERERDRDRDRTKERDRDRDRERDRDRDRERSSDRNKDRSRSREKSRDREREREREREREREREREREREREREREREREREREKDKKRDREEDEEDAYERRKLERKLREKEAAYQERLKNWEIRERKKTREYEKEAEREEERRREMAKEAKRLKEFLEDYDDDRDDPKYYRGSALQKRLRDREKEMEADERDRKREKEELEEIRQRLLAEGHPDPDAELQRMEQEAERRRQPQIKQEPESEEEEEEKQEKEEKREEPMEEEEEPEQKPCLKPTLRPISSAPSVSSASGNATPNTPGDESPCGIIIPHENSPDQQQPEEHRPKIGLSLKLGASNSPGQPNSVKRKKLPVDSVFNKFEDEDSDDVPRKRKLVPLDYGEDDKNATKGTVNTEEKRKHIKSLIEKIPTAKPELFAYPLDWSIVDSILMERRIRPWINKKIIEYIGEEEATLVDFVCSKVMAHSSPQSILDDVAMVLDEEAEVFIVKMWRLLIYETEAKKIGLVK
UniProt Q96EV2: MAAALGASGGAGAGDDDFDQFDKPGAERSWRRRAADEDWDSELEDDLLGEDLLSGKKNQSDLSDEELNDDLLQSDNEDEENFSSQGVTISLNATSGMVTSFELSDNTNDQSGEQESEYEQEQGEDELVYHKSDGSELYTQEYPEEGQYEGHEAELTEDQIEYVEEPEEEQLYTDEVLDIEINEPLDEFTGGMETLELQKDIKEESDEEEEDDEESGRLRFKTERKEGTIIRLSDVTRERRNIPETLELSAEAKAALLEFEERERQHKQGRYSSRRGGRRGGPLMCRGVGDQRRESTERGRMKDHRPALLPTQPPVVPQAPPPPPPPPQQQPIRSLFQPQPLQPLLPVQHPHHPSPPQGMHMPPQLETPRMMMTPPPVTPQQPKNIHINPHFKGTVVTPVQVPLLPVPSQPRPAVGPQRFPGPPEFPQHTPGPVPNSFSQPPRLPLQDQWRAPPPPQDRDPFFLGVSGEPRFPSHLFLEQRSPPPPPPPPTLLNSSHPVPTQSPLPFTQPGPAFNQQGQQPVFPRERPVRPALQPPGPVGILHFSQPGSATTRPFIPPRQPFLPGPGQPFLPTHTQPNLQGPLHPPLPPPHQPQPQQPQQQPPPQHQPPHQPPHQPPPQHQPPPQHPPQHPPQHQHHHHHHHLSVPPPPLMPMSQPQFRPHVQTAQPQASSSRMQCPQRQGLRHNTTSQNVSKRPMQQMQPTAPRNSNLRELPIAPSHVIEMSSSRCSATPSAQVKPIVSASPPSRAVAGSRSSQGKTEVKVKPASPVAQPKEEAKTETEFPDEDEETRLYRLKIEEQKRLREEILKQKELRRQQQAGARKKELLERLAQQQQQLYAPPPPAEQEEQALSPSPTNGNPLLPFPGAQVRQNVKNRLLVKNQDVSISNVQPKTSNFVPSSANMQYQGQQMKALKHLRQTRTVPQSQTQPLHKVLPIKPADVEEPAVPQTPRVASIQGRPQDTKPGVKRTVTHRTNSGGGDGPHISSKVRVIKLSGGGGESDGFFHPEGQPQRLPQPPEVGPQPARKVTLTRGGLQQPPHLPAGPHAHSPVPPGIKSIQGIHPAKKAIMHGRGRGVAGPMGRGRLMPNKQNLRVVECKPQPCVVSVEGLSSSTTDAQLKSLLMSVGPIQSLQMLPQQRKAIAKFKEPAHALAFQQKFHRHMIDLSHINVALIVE
UniProt Q9H2M9: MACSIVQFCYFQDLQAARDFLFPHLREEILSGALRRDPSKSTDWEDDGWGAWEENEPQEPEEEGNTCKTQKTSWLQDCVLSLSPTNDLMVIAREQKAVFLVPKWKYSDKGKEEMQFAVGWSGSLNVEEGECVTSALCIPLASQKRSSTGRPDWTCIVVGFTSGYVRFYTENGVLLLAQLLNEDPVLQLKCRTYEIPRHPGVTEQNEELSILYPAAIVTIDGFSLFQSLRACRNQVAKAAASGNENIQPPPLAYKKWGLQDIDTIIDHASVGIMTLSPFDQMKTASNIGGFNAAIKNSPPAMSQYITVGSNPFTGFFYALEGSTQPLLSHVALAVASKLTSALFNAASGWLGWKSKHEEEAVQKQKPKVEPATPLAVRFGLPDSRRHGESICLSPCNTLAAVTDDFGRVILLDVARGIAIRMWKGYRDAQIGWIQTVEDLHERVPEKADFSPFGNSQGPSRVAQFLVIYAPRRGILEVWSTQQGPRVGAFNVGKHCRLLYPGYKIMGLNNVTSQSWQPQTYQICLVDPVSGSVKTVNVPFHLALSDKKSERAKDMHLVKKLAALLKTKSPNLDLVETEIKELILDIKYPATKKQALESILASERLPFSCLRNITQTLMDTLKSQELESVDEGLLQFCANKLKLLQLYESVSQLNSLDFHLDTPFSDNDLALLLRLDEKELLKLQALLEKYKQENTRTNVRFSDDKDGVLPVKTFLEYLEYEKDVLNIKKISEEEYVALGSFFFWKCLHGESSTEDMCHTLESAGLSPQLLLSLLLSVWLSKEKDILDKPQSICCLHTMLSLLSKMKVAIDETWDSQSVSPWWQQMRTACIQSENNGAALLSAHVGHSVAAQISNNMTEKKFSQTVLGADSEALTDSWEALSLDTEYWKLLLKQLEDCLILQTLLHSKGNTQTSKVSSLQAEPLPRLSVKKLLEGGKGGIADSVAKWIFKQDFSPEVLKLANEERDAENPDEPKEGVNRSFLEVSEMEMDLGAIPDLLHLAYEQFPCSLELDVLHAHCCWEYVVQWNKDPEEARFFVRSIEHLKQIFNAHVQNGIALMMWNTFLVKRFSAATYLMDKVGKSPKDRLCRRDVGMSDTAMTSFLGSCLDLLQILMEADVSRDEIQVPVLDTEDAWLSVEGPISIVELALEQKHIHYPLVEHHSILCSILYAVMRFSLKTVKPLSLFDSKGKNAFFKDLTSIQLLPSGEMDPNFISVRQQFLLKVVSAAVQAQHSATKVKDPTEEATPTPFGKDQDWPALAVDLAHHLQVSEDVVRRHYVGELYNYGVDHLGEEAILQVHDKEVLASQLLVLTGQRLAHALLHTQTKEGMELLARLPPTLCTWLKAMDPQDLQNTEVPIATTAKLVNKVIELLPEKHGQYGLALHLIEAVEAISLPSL
UniProt Q9NW13: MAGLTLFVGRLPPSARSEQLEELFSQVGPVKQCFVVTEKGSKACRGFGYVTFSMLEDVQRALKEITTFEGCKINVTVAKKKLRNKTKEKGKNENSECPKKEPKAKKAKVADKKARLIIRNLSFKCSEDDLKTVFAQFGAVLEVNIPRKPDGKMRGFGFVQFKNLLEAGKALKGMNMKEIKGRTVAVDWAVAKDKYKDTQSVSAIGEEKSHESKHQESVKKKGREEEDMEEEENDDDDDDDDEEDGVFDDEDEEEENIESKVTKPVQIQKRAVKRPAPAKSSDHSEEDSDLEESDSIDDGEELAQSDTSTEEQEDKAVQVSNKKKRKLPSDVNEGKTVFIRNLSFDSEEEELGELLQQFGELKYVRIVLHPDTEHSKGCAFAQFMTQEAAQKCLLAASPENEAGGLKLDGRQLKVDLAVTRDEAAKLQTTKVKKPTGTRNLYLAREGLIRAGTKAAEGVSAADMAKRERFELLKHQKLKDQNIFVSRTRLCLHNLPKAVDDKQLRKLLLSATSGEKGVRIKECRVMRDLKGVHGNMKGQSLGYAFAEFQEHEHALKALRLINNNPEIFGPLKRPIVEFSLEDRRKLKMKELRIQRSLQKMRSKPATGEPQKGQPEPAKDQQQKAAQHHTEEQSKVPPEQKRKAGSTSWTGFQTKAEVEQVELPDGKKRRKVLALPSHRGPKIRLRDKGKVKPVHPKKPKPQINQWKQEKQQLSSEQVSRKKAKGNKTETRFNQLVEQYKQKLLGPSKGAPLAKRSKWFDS
UniProt Q13905: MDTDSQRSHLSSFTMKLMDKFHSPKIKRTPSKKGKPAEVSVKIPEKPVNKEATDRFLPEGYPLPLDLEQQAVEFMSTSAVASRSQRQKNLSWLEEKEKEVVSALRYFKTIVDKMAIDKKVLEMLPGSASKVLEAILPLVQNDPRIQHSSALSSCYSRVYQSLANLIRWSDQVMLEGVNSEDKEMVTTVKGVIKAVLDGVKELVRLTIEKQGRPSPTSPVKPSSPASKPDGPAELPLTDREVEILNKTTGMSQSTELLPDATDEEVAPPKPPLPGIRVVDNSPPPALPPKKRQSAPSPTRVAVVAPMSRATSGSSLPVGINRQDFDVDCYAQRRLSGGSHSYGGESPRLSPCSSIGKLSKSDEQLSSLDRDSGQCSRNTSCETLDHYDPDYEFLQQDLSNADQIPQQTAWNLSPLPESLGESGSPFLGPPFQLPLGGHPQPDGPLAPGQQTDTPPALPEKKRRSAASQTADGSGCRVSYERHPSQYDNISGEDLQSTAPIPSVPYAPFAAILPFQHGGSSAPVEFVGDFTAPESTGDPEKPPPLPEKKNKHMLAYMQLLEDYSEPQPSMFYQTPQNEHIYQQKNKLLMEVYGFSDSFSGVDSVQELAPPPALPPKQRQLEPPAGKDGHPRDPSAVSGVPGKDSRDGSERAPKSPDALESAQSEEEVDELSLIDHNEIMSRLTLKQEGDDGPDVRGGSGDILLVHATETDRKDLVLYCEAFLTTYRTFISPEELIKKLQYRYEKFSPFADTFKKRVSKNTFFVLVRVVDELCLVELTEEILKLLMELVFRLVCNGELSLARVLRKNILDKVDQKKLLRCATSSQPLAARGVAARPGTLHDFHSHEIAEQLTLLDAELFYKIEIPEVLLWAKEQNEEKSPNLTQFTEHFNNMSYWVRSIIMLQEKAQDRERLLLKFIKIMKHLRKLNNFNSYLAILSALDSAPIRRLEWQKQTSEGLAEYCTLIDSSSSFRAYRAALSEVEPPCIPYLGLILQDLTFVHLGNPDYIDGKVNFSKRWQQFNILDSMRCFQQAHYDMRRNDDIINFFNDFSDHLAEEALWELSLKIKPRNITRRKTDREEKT
UniProt Q86WH2: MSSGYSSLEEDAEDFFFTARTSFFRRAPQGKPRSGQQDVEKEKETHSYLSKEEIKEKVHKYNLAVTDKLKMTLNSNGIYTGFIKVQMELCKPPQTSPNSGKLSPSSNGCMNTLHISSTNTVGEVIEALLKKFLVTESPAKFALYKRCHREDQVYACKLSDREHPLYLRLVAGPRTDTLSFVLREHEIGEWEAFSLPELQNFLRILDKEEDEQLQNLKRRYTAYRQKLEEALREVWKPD

[2] = compound: CC1=C(C=C(C=C1)NC(=O)C2=CC(=CC=C2)N(C)C)NC(=O)C3=CC=C(C=C3)O
In short: as §1

[3] = compound: CC1=CC=C(C=C1)SC2=C3C=C(SC3=CN=C2)C(=O)N
In short: as §1

[4] = compound: CC1=NC(=CC=C1)C2=C(N=C(N2)C(C)(C)C)C3=CC4=NC=CN=C4C=C3
In short: as §1

[5] = compound: CCCCN(Cc1ccc(C(=O)NO)cc1)C(=O)Nc1ccccc1 [Nexturastat A]
In short: as §1

[6] = compound: CCCS(=O)(=O)Nc1ccc(F)c(C(=O)c2c[nH]c3ncc(-c4ccc(Cl)cc4)cc23)c1F [vemurafenib]
In short: as §1

[7] = compound: CCCS(=O)(=O)Nc1ccc(F)c(C(=O)c2c[nH]c3ncc(Cl)cc23)c1F
In short: as §1

[8] = compound: CCCc1cc(C)[nH]c(=O)c1CNC(=O)c1cc(-c2ccnc(N3CCN(C)CC3)c2)cc2c1cnn2C(C)C
In short: as §1

[9] = compound: CCN(CC)Cc1ccc2cc(COC(=O)Nc3ccc(C(=O)NO)cc3)ccc2c1 [givinostat]
In short: as §1

[10] = compound: CCN(CCCOc1ccc2c(Nc3cc(CC(=O)Nc4cccc(F)c4)[nH]n3)ncnc2c1)CCOP(=O)(O)O [barasertib]
In short: as §1

[11] = compound: CC[C@@H]1C(=O)N(C)c2cnc(Nc3ccc(C(=O)NC4CCN(C)CC4)cc3OC)nc2N1C1CCCC1
In short: as §1

[12] = compound: CC[C@@H]1C(=O)N(C)c2cnc(Nc3ccc(C(=O)N[C@H]4CC[C@H](N5CCN(CC6CC6)CC5)CC4)cc3OC)nc2N1C(C)C [volasertib]
In short: as §1

[13] = compound: CC[C@H](C)N1C=C(C2=C(C=C(C=C21)C3=CN=C(C=C3)N4CCNCC4)C(=O)NCC5=C(C=C(NC5=O)C)C)C
In short: as §1

[14] = compound: CC[C@H](C)[C@@H](C(=O)N[C@@H]([C@@H](C)O)C(=O)N[C@@H](CC(C)C)C(=O)[C@]1(CO1)C)NC(=O)[C@H]([C@@H](C)CC)N(C)C(=O)C [epoxomicin]
In short: as §1

[15] = compound: CCn1cc(-c2ccnc3[nH]c(-c4cccc(CN(C)C)c4)cc23)c(-c2ccc(NC(=O)N(C)C)cc2)n1
In short: as §1

[16] = compound: CN(C)CC(=O)Nc1ccc2[nH]c(=O)c3ccccc3c2c1
In short: as §1

[17] = compound: CN1C2=C(C3=C1C(=O)N(N=C3)CC4=CC(=CC=C4)N)SC(=C2)S(=O)C
In short: as §1

[18] = compound: CN1CCC(CNc2ccc3ncc(-c4cccc(OC(F)(F)F)c4)n3n2)CC1
In short: as §1

[19] = compound: CCn1c(C(=O)N(C2CC2)C2CC2)cc2c3c(ncn3C)c(Nc3cc(C)n(C)n3)nc21
In short: as §1

[20] = compound: CN(CCOC1=CC=C(C=C1)C[C@H]2C(=O)NC(=O)S2)C3=CC=CC=N3 (racemic) [rosiglitazone]
In short: as §1

Measured: log2 fold change

RAB33B (UniProt Q9H082)
inactive: [1] -0.028 | [2] -0.026 | [3] -0.028 | [4] -0.071 | [5] -0.004 | [6] -0.083 | [7] -0.038 | [8] -0.065 | [9] -0.012 | [10] 0.031 | [11] -0.016 | [12] -0.014 | [13] -0.04 | [14] -0.009 | [15] 0.09 | [16] -0.031 | [17] -0.067 | [18] -0.006

RBM27 (UniProt Q9P2N5)
active: [12] -0.296
inactive: [1] 0.031 | [2] -0.008 | [3] 0.01 | [4] -0.018 | [5] 0.025 | [6] -0.008 | [7] 0.09 | [8] 0.041 | [9] 0.013 | [10] 0.009 | [11] -0.141 | [13] 0.014 | [14] 0.014 | [15] 0.001 | [16] 0.027 | [17] -0.013 | [18] -0.068

RBM23 (UniProt Q86U06)
inactive: [1] -0.059 | [2] 0.194 | [3] -0.513 | [5] 0.072 | [6] 0.175 | [7] 0.268 | [9] -0.038 | [10] 0.024 | [12] -0.379 | [14] 0.046 | [19] 0.117 | [16] 0.22 | [20] 0.185 | [17] -0.292

RAD18 (UniProt Q9NS91)
inactive: [1] -0.042 | [2] -0.131 | [3] 0.049 | [4] 0.063 | [5] 0.106 | [6] 0.154 | [7] 0.113 | [8] 0.459 | [9] 0.237 | [10] 0.145 | [12] -0.31 | [13] 0.038 | [14] -0.031 | [19] -0.021 | [15] -0.004 | [16] 0.038 | [20] -0.037 | [17] 0.021 | [18] -0.184

RACK1 (UniProt D6RF23)
inactive: [1] 0 | [2] 0 | [3] -0.241 | [4] -0.149 | [5] -0.138 | [6] -0.108 | [7] -0.343 | [8] -0.808 | [9] -0.063 | [10] 0.02 | [11] 0.282 | [12] 0.184 | [14] -0.083 | [19] 0.02 | [15] 0.069 | [16] -0.03 | [20] 0.116 | [17] 0.035 | [18] -0.113

RAI14 isoform 2 (UniProt Q9P0K7)
inactive: [1] -0.107 | [2] 0 | [3] -0.005 | [5] 0.088 | [6] -0.058 | [7] 0.052 | [8] 0.141 | [9] 0.031 | [10] -0.133 | [12] -0.273 | [13] 0.361 | [14] 0.045 | [19] -0.02 | [15] 0.045 | [16] 0.106 | [20] 0.224 | [17] 0.145 | [18] -0.087

RAP2C (UniProt Q9Y3L5)
inactive: [1] -0.064 | [2] 0.052 | [3] -0.03 | [5] 0 | [6] 0.066 | [7] -0.13 | [8] -0.052 | [9] -0.044 | [10] -0.031 | [11] 0.02 | [12] 0.05 | [13] 0.042 | [14] 0.172 | [15] 0.097 | [16] 0.052 | [17] -0.105 | [18] 0.173

RAPGEF2, A0A2R8YGD3
inactive: [1] -0.014 | [2] 0.085 | [3] 0.019 | [4] -0.031 | [5] 0.035 | [6] -0.138 | [7] -0.05 | [8] -0.153 | [9] -0.022 | [10] -0.037 | [12] -0.041 | [14] 0.058 | [19] -0.028 | [15] 0.031 | [16] -0.105 | [20] 0.028 | [17] 0.012 | [18] -0.114

RBM25 (UniProt P49756)
inactive: [1] -0.032 | [2] 0.017 | [3] -0.007 | [4] -0.074 | [5] 0.02 | [6] 0.019 | [7] 0 | [8] -0.093 | [9] 0.202 | [10] 0.035 | [11] 0.024 | [12] -0.239 | [13] -0.019 | [14] 0.015 | [15] 0.074 | [16] 0.041 | [17] 0.086 | [18] -0.07

RBM33 (UniProt Q96EV2)
inactive: [1] -0.024 | [2] -0.001 | [3] -0.014 | [4] 0.014 | [5] 0.021 | [6] -0.019 | [7] 0.022 | [8] 0.022 | [9] 0.077 | [10] 0.037 | [11] -0.101 | [12] -0.105 | [13] 0.035 | [14] 0.022 | [15] -0.005 | [16] -0.025 | [17] 0.023 | [18] 0.004

3 consecutive entries from above, quoted:
RACK1 (UniProt D6RF23)
inactive: [1] 0 | [2] 0 | [3] -0.241 | [4] -0.149 | [5] -0.138 | [6] -0.108 | [7] -0.343 | [8] -0.808 | [9] -0.063 | [10] 0.02 | [11] 0.282 | [12] 0.184 | [14] -0.083 | [19] 0.02 | [15] 0.069 | [16] -0.03 | [20] 0.116 | [17] 0.035 | [18] -0.113

RAI14 isoform 2 (UniProt Q9P0K7)
inactive: [1] -0.107 | [2] 0 | [3] -0.005 | [5] 0.088 | [6] -0.058 | [7] 0.052 | [8] 0.141 | [9] 0.031 | [10] -0.133 | [12] -0.273 | [13] 0.361 | [14] 0.045 | [19] -0.02 | [15] 0.045 | [16] 0.106 | [20] 0.224 | [17] 0.145 | [18] -0.087

RAP2C (UniProt Q9Y3L5)
inactive: [1] -0.064 | [2] 0.052 | [3] -0.03 | [5] 0 | [6] 0.066 | [7] -0.13 | [8] -0.052 | [9] -0.044 | [10] -0.031 | [11] 0.02 | [12] 0.05 | [13] 0.042 | [14] 0.172 | [15] 0.097 | [16] 0.052 | [17] -0.105 | [18] 0.173

(further entries)

RAP1GDS1 isoform 5 (UniProt P52306)
inactive: [1] -0.04 | [2] -0.035 | [3] 0.073 | [4] 0.042 | [5] -0.023 | [6] -0.014 | [7] 0.174 | [8] 0.016 | [9] 0.047 | [10] 0.019 | [11] -0.018 | [12] -0.27 | [13] 0.077 | [14] 0 | [15] -0.008 | [16] -0.017 | [17] -0.012 | [18] -0.002

RAB3GAP2 (UniProt Q9H2M9)
inactive: [1] -0.001 | [2] -0.018 | [3] 0.017 | [4] -0.029 | [5] 0.215 | [6] 0.06 | [7] 0.026 | [8] 0.092 | [9] 0.106 | [10] 0.068 | [11] -0.101 | [12] -0.358 | [13] 0.044 | [14] 0.022 | [15] 0.088 | [16] 0.04 | [17] 0.133 | [18] -0.132

RBM28 (UniProt Q9NW13)
inactive: [1] -0.023 | [2] 0.022 | [3] 0.095 | [5] 0.409 | [7] 0.295 | [8] 0.101 | [9] 0.302 | [10] 0.086 | [11] 0.059 | [12] -0.06 | [14] -0.096 | [19] 0.117 | [20] -0.271

RAP1B (UniProt F5GWU8)
inactive: [2] 0.473 | [3] -0.115 | [4] -0.197 | [6] 0.11 | [7] 0.002 | [12] -0.138 | [16] -0.271 | [17] -0.005

RBKS (UniProt Q9H477)
inactive: [2] 0.019 | [3] 0.038 | [6] -0.155 | [7] -0.029 | [8] -0.131 | [11] -0.101 | [12] -0.178 | [16] 0.12

RAPGEF4 (UniProt Q8WZA2)
inactive: [1] -0.046 | [4] -0.235 | [5] 0.245 | [6] -0.267 | [8] -0.203 | [9] 0.248 | [10] 0.041 | [11] -0.13 | [14] -0.038 | [16] -0.011 | [17] -0.036

RAPGEF1 isoform 3 (UniProt Q13905)
inactive: [1] 0.012 | [8] -0.074 | [10] -0.04 | [20] 0.114

RBBP8 isoform 2 (UniProt Q99708)
inactive: [3] 0 | [4] -0.066 | [7] 0.009 | [9] 0.059 | [12] -0.22 | [19] 0.041

RASSF3 (UniProt Q86WH2)
inactive: [2] 0.002 | [3] -0.032 | [6] -0.066 | [7] -0.042 | [8] 0.035 | [9] 0.057 | [10] 0.016 | [11] -0.055 | [12] -0.014 | [13] 0.005 | [19] -0.062 | [15] 0.051 | [16] -0.072 | [20] 0.045 | [18] 0.273
